The data set in a line: Potentiometric titration of NiR variants, midpoint potential of the type-1 site. Type of data set: physicochemical, A. faecalis S-6. As to conditions: versus NHE, without ligands, 298 K, 100 mM potassium phosphate pH 7.0; listed as wt NiR.

Several values for one entry are separate records, joined by “and”; a condition that tells them apart may be missing. Equal values may be shown once.

B1: wild-type Cu-containing nitrite reductase from Alcaligenes faecalis S-6 (protein)
chain: QGAVRKATAAEIAALPRQKVELVDPPFVHAHSQVAEGGPKVVEFTMVIEEKKIVIDDAGTEVHAMAFNGTVPGPLMVVHQDDYLELTLINPETNTLMHNIDFHAATGALGGGGLTEINPGEKTILRFKATKPGVFVYHCAPPGMVPWHVVSGMNGAIMVLPREGLHDGKGKALTYDKIYYVGEQDFYVPRDENGKYKKYEAPGDAYEDTVKVMRTLTPTHVVFNGAVGALTGDKAMTAAVGEKVLIVHSQANRDTRPHLIGGHGDYVWATGKFNTPPDVDQETWFIPGGAAGAAFYTFQQPGIYAYVNHNLIEAFELGAAAHFKVTGEWNDDLMTSVLAPSGT
In the case of B1, the “midpoint potential of the type-1 site” value is 213+5 mV and 213 mV.

The values are drawn from patent US20100167311A1, “Oxidoreductases and Processes Utilising Such Enzymes” (priority 2006, published 2010).
